# According to PMC9248092:
# These are yes or no findings as the source states them, for the method shown. In cells and extracts the contact can be indirect. Some binding calls cover weakened binding; strength is not graded here.
# Tests used:
# [1] = target: leptin (human (endogenous in TW06)) (UniProt P41159); experiment: co-IP; endogenous proteins in TW06 cell lysate; IP with anti-EGFR, anti-leptin or control antibody for 16 h at 4 °C, then Protein A/G for 2 h at 4 °C; three washes with IP lysis buffer; Western blot for the other protein
# [2] = target: EGFR (human (endogenous in TW06)) (UniProt P00533); experiment: as above
binding [1],binding [2],Substance
binds,–,EGFR (from UniProt P00533 25-1210) (receptor)
–,binds,leptin (from UniProt P41159 22-167) (ligand)
